# Primary screen of a compound library

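Viability assay of Plasmodium falciparum sporozoites; the read-out is not stated. The concentration is filed as 10 mM, unlikely as a test dose, so the dose is not known. Higher reads as lower viability (inferred: compounds with an IC50 in retests scored well above the rest). Strong results were mostly tested again. Of about 34,000 compounds tested this way, about 280 (0.84%) reached 50% or more in at least one test.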

Results are given as percent effect.
The controls that fix the scale are not given in the record; negative values are as filed.
This is an unselected part of the compounds tested.
Two or more numbers in one place are separate tests of the same structure; such repeats can differ widely.

Compound | percent effect
CN1CCN(C(=O)c2cn(Cc3ccccc3)c3ncccc23)CC1 | -5.12%
CN1CC(=O)N(c2cccc(F)c2)CC12CCN(CCO)C2.O=C(O)C(F)(F)F.O=C(O)C(F)(F)F (stereo not drawn) | 1.852%
Cc1cnn(CC2CN(c3cnc4ccccc4n3)CCO2)c1 (stereo not drawn) | 9.786%
CS(=O)(=O)c1ccccc1C(=O)NCCCN1CCc2ccccc2C1 | -15.44%
COc1c(C2CCCN2C(=O)c2ccc(C#N)cc2)c(C)nn1C (stereo not drawn) | 4.456%
O=C1CN(C(=O)C2CN(c3ccc(F)cc3)CCO2)CCN1 (stereo not drawn) | 8.495%
O=C(Cc1cccnc1)N1CCC(OCc2ccccc2)CC1 | 3.638%
Cc1ccc(CN2CCN(Cc3ccc(N(C)C)nc3)CC2=O)cc1C | -12.15%
[H][C@@]12OCCN(Cc3ccc(F)cc3)[C@@]1([H])CC[C@H]2OCC | 1.686%
O=C(CCCNc1ncccn1)N1CCCC(n2cncn2)C1 (stereo not drawn) | -4.509%
O=C(O)C(F)(F)F.[H][C@]12CN(Cc3ccccc3OC)C[C@@]1([H])OCCN(C(C)=O)C2 | 4.028%
NC(=O)c1ccccc1Oc1cccc(C2CCCNC2)n1 (stereo not drawn) | -0.4995%
CN(C)C(=O)CN1CCC2(CCCN(Cc3ccoc3)C2)C1=O (stereo not drawn) | 26.65%
Cc1csc(N2CCCN(C(=O)c3c(C)noc3C)CC2)n1 | -9.333%
CCC1CCCCN1CCNC(=O)N1CCN(Cc2ccon2)CC1 (stereo not drawn) | 2.696%
COCCC(=O)N1CCCC(CCC(=O)Nc2ccc(Cl)cc2)C1 (stereo not drawn) | -6.661%
O=C(Cc1ccc(-n2cccn2)cc1)N1CCN2CCCCC2C1 (stereo not drawn) | -12.25%
CCOCC(O)CN1CCN(C(=O)c2cc(F)cc(F)c2)CC1 (stereo not drawn) | 1.875%
[H][C@@]12COC[C@]1([H])[C@@H](OCc1csc(C)n1)CN2C(=O)c1cccnc1 | 3.322%
Cc1nc(-c2ccccc2)n(CC(=O)NC(C)(C)C)n1 | 3.606%
c1cnc(CC2CCN(c3cnccn3)CC2)cn1 | 5.627%
CN(Cc1nnc(C2CC2)n1C)C1CCN(CCc2cccs2)C1 (stereo not drawn) | -3.648%
CN1CCC(c2nccnc2Nc2cnccn2)CC1 | -2.749%
c1ccc(-c2nc(CNC3CCc4ncnn4C3)cs2)cc1 (stereo not drawn) | 1.596%
CN1CC(C(=O)NCc2ccc(Br)cc2F)CC1=O (stereo not drawn) | -4.476%
COc1cc(C)nc(N2CCN(C(=O)CCc3nccs3)CC2)n1 | 3.412%
CCc1nccn1C1CCCN(C(=O)c2csc(NC(C)=O)n2)C1 (stereo not drawn) | -5.031% and -15.23% and -3.911%
Cc1nc(N(C)C)nc2c1COCC21CCN(C(=O)NC(C)C)C1 (stereo not drawn) | -2.706%
Cc1cccc(CN2C(=O)CCC23CCN(Cc2cccn2C)CC3)n1.O=C(O)C(F)(F)F.O=C(O)C(F)(F)F | -4.125%
CN(C)c1nccc(C2CCCN(C(=O)CO)C2)n1 (stereo not drawn) | -1.652%
CC(O)CN1CCN(C(=O)c2cnn(-c3ccc(Cl)cc3)c2)CC1 (stereo not drawn) | 0.4292%
CC(Cn1ccnc1)NC(=O)Cc1ccc2c(c1)OCCO2 (stereo not drawn) | 4.119% and -5.814% and 4.816%
CC(C)(C)c1ncc(C(=O)NCCSc2ccccn2)c(O)n1 | 98% and 98.19%
CCn1cc(NC(=O)C2CCN(CC(=O)NCC(C)C)CC2)cn1 | -1.83%
CC(=O)NCCNC(=O)CN1CCOC(Cn2cccn2)C1 (stereo not drawn) | 1.698%
O=C(NCc1ccc(F)cc1)NCC(O)(c1cccs1)C1CC1 (stereo not drawn) | -0.6652% and -7.535%
CCC1CCCCN1Cc1nc2c(cnn2C)c(=O)[nH]1 (stereo not drawn) | 9.772%
CCCC(=O)NC1CCCN(Cc2cccs2)C1 (stereo not drawn) | -5.73%
Cc1cc2nccc(C3CCN(C(=O)c4ccccc4F)CC3)n2n1 | -9.622%
O=C(COc1ccccc1Cl)N1CCCC(n2ccnc2)C1 (stereo not drawn) | 0.8103%
CN(C)CCN1C(=O)CCC12CCN(C(=O)c1cccnc1)CC2.O=C(O)C(F)(F)F.O=C(O)C(F)(F)F | -3.978% and -58.46% and 9.103%
CC(C)N(C)Cc1ncn2c1CN(C(=O)C1CCCO1)CCC2 (stereo not drawn) | -7.257%
O=C(N[C@@H]1CCC[C@@H](N2CCOCC2)[C@@H]1O)c1cnn2cccnc12 | -1.779%
CC(C)(C(=O)N1CCC(C(N)=O)C1)c1ccccc1F (stereo not drawn) | -15.74%
O=C(O)c1ccc(N2CCC(Oc3ccc(Cl)cc3)CC2)nc1 | -24.5% and -26.79%
Cc1ccc(C)n1-c1c(C(=O)NCC(C)N(C)C)cnn1C (stereo not drawn) | 8.447%
O=c1[nH]c(N2CCOCC2)nc2c1CN(Cc1cccnc1)CC2 | 3.337%
Cc1nc(CN2Cc3cn(C)nc3C(COCC3CC3)C2)cs1 (stereo not drawn) | -106.4%
CCOC(=O)c1n[nH]cc1-c1cncn1CCCn1nc(C)cc1C.Cl | 9.068%
COCc1cccc(CNCc2c(C)nn(C)c2N2CCOCC2)c1 | 6.007% and 13.06% and 6.905%
c1cnc(N2CCc3onc(CN4CCCC4)c3C2)cn1 | 9.185%
Cc1ncsc1CN(C)Cc1cc2c(cc1OC(F)F)OCO2 | 74.26% and 62.83%
CC(C)Cc1cc(C(=O)N2CCCC(n3cncn3)C2)[nH]n1 (stereo not drawn) | -25.54%
CNc1cc(C)nc(N2CCC3(CC2)[C@H](O)C[C@@H]3OCCN(C)C)n1 | -6.094%
Cc1[nH]ncc1CCCNC(=O)Nc1ccc(C#N)cc1 | -10.94%
COC(=O)c1ncccc1N1CCC(C(O)c2ccccc2)CC1 (stereo not drawn) | 5.969%
Cc1ccc(-c2noc(CN3CCc4cncnc4C3)n2)cc1 | 16.06%
Cc1nnc(NCc2ccccc2S(=O)(=O)N(C)C)c(C#N)c1C | -4.915%
Cc1cc(C(N)=O)nc(C2(C)CCCN2Cc2cnn(C)c2C)n1 (stereo not drawn) | 14.51%
Cc1ccc(CN2CCc3ncnc(-c4ccoc4)c3CC2)o1.O=C(O)C(F)(F)F | 8.509%
Cc1cc(N2CCN(c3ccc(=O)[nH]n3)CC2)nc(-c2ccncc2)n1 | 8.684%
O=C(O)C(F)(F)F.[H][C@@]12CCN(c3ncccn3)[C@]1([H])CC[C@H](C(=O)NCc1ccco1)O2 | 0.7299%
Cc1nc2c(c(NCCc3nccs3)n1)CCN(CC1CC1)CC2 | -1.253%
CCc1ncc2c(n1)CN(Cc1nnc(Cc3ccccc3)o1)CC2 | 4.558%
COCC(=O)Nc1ccc2c(c1)C1(CCOCC1)CN2CCF.O=C(O)C(F)(F)F | 5.954%
CC(O)CN1CCC(=O)N(Cc2ccccc2)Cc2ccccc21 (stereo not drawn) | -32.43%
Cc1ccc(Cl)cc1N1CCC(CNC(=O)CCn2ccnc2)C1 (stereo not drawn) | 4.992%
C[C@@H]1CN(Cc2cccnc2)C[C@]1(C)O | -8.883%
Cc1ccc(C(=O)N2CCCC2c2nnc3n2CCCCC3)o1 (stereo not drawn) | -12.09%
CC(C)c1noc(C(C)N2CCN(Cc3cccnc3)CC2)n1 (stereo not drawn) | 2.065%
Cc1ccc(Oc2ncccc2C(=O)N(C)CC2OCCO2)c(C)c1 | 4.719%
COCCn1cnnc1C1CCCN(c2cnccn2)C1 (stereo not drawn) | 7.584%
COc1ccccc1N(C)Cc1nc2c(cnn2C)c(=O)[nH]1 | 3.886%
O=C(CCc1ccsc1)Nc1ccnn1C1CCS(=O)(=O)C1 (stereo not drawn) | -2.999%
Cn1c(=O)ccn(CC(=O)Nc2cnccc2O)c1=O | -12.8%

6 of the entries, repeated:

CS(=O)(=O)c1ccccc1C(=O)NCCCN1CCc2ccccc2C1 read -15.44%.
Cc1nc2c(c(NCCc3nccs3)n1)CCN(CC1CC1)CC2 read -1.253%.
Cc1csc(N2CCCN(C(=O)c3c(C)noc3C)CC2)n1 read -9.333%.
O=C(NCc1ccc(F)cc1)NCC(O)(c1cccs1)C1CC1 (stereo not drawn) read -0.6652% and -7.535%.
CN(C)CCN1C(=O)CCC12CCN(C(=O)c1cccnc1)CC2.O=C(O)C(F)(F)F.O=C(O)C(F)(F)F read -3.978% and -58.46% and 9.103%.
COc1c(C2CCCN2C(=O)c2ccc(C#N)cc2)c(C)nn1C (stereo not drawn) read 4.456%.

From ChEMBL document CHEMBL3988442, “University of Dundee, Small-Polar-MMV Screening Library” (2021).